The values that follow come from article doi:10.1101/2022.05.18.492252.

Sequences of proteins named here, by UniProt entry; tags and fusion partners are left off. Residues count along the entry.
UniProt Q15363, residues 21-201: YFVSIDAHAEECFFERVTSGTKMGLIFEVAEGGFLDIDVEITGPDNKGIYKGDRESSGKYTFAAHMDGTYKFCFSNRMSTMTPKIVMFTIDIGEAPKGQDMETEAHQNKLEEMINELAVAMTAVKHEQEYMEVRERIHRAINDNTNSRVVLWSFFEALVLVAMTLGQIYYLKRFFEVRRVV

These are yes or no findings as the source states them, for the method shown. Binding seen in cells or lysates may run through a third protein. Some entries that bind do so weakly or less than the wild type. Sequences can lack the tags named with a protein.

The assay has as its target T1, GFP-VAPA (UniProt Q9P0L0).
T1 sequence: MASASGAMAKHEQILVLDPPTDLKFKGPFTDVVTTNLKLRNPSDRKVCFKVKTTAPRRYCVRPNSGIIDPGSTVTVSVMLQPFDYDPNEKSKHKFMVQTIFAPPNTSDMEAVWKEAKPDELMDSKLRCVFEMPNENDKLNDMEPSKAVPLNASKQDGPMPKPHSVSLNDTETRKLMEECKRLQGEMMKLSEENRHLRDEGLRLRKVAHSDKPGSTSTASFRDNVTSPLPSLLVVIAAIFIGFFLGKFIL
As to the kind of experiment: co-IP.

For “TMED2, endogenous (from UniProt Q15363 21-201)”, the binding entry is “binds”.

B1: TMED10, endogenous (protein, UniProt P49755 32-219)
chain: ISFHLPINSRKCLREEIHKDLLVTGAYEISDQSGGAGGLRSHLKITDSAGHILYSKEDATKGKFAFTTEDYDMFEVCFESKGTGRIPDQLVILDMKHGVEAKNYEEIAKVEKLKPLEVELRRLEDLSESIVNDFAYMKKREEEMRDTNESTNTRVLYFSIFSMFCLIGLATWQVFYLRRFFKAKKLIE
With B1, the binding entry was “binds”.
